These are literature values, as cited in patent US9249466B2, “Methods and compositions for treating cancer” (Agency for Science, Technology and Research, priority 2010, dated 2016).

For this data set the following is noted: cited from earlier work.

Like-named read-outs stand apart in the source and are kept apart here.

As for `CO[C@H]1C[C@@H]2CC[C@@H](C)[C@@](O)(O2)C(=O)C(=O)N2CCCC[C@H]2C(=O)O[C@H]([C@H](C)C[C@@H]2CC[C@@H](O)[C@H](OC)C2)CC(=O)[C@H](C)/C=C(\C)[C@@H](O)[C@@H](OC)C(=O)[C@H](C)C[C@H](C)/C=C/C=C/C=C/1C` [rapamycin, (3S,6R,7E,9R,10R,12R,14S,15E,17E,19E,21S,23S,26R,27R,34aS)-9,10,12,13,14,21,22,23,24,25,26,27,32,33,34,34a-hexadecahydro-9,27-dihydroxy-3-[(1R)-2-[(1S,3R,4R)-4-hydroxy-3-methoxycyclohexyl]-1-methylethyl]-10,21-dimethoxy-6,8,12,14,20,26-hexamethyl-23,27-epoxy-3H-pyrido[2,1-c][1,4]-oxaazacyclohentriacontine-1,5,11,28,29(4H,6H,31H)-pentone], the solubility entry reads like this: (alcohols, halogenated hydrocarbons and dimethyl sulfoxide) “soluble in alcohols”; (water, aliphatic hydrocarbons and diethyl ether) “sparingly soluble”.
